Laboratory results: the supplement of paper PMC7824004
Some of the results follow. The data scatter; read single values as rough.

The molecules below were run on Candida albicans SN425 (assay: biofilm OD600 B-score; higher = more biofilm (less inhibition)). Conditions: 10 µM; assay detail: High-throughput adherence inhibition optical density biofilm assay with C. albicans SN425 in RPMI-1640/MOPS pH 7.0, 384-well plates. ….
Protocol: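 High-throughput adherence inhibition optical density biofilm assay with C. albicans SN425 in RPMI-1640/MOPS pH 7.0, 384-well plates. Compound (10 µM) was present only during the 90 min adherence step, then washed out, and the biofilm grew 24 h without compound. Biofilm was read as OD600 after removing the media. Scores are the difference from the mean in standard deviations and the plate B-score.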

Row | Compound | biofilm OD600 B-score
1 | Cc1ccc(S(=O)(=O)N2CCOCC2)cc1C(=O)Nc1cccnc1 | -2.83
2 | O=C(c1ccc(S(=O)(=O)c2ccccc2)cc1)N1CCOCC1 | 0.17
3 | COc1ccc(CCNC(=O)c2cccnc2)cc1 | 0.0452
4 | COCCNC(=O)c1cc(Cl)ccc1OC | -0.412
5 | COc1c(S(=O)(=O)n2nc(C)cc2C)ccc(Cl)c1Cl | -0.616
6 | NC(=O)C1CCN(Cc2c(F)cccc2Cl)CC1 | -1.7
7 | CCOc1ccc2nc(SCC(N)=O)sc2c1 | 0.0394
8 | O=C(Nc1ccccc1)NC1CCCC1 | 0.331
9 | CC(C)c1ccc(CN2CCC(O)CC2)cc1 | 0.586
10 | COc1ccc(C(=O)NCCCN2CCOCC2)cc1 | 0.854
11 | CN1CCN(c2nc(/C=C/c3ccccc3)nc3ccccc23)CC1 | 2.14
12 | Cc1ccc(C(=O)N(CC(N)=O)CC(N)=O)cc1 | 2.75
13 | COCCNS(=O)(=O)c1cc(Cl)ccc1OC | -0.214
14 | Cc1ccc(NC(=O)CC(C)C)c(NC(=O)CC(C)C)c1 | 2.24
15 | N#CCCNCCN1CCCC1=O | 0.792
16 | CCOCC(O)CS(=O)(=O)c1ccccn1 (stereo not given) | -0.0353
17 | NC(=O)c1cc([N+](=O)[O-])ccc1N1CCCCC1 | 1.48
18 | Cc1occc1C(=O)NCCCc1ccccc1 | -1.6
19 | O=C(CSC1=NCCS1)NCc1ccco1 | -2.19
20 | Cc1cc(OCC(=O)Nc2cccnc2)cc(C)c1Cl | -1.58

Compounds shown so far that have two or more sulfur atoms:
Row | Compound | biofilm OD600 B-score
7 | CCOc1ccc2nc(SCC(N)=O)sc2c1 | 0.0394
19 | O=C(CSC1=NCCS1)NCc1ccco1 | -2.19

Later entries

Row | Compound | biofilm OD600 B-score
21 | c1ccc(OCCCN2CCOCC2)cc1 | 2.67
22 | C=CCOc1ccccc1CN1CCN(c2ccccn2)CC1 | -3.81
23 | Cc1cccc(CN(C)CCN(C)C)c1 | 0.0821
24 | O=C(Nc1ccc(Cl)cc1Cl)C1CCCO1 (stereo not given) | 0.977
25 | N#CCCN(CC(=O)O)S(=O)(=O)c1ccccc1 | -1.23
26 | COc1ccc(/C=C/c2ccc3cccc(O)c3n2)cc1O | 1.27
27 | COCC(=O)Nc1ccccc1C(C)C | -0.0188
28 | O=C(Nc1cccnc1)c1ccccc1F | 0.476
29 | O=C(Nc1ccccc1Cl)C1CCN(C(=O)c2cccs2)CC1 | 0.586
30 | O=C(NC1CCCCCC1)c1cnccn1 | -3.19
31 | O=C(COc1ccccc1Cl)N1CCCC1 | -0.846
32 | CC(NC(=O)C(C)(C)Oc1ccc(Cl)cc1)c1ccncc1 (stereo not given) | 2.05
33 | O=C(Nc1ncn[nH]1)C1c2ccccc2Oc2ccccc21 | 0.626
34 | C=CCc1cccc(OC)c1OCCn1cnc2ccccc2c1=O | -3.03
35 | OC(COCCC12CC3CC(CC(C3)C1)C2)CN1CCOCC1 (stereo not given) | -2.12
36 | Cc1ccc(C(=O)CSc2nnc(N)s2)c(C)c1 | 0.0843
37 | COc1ccc(N2CCN(C(=O)C3COc4ccccc4O3)CC2)cc1 (stereo not given) | 0.92
38 | NCCOc1ccccc1Cc1ccccc1 | -1.24
39 | Cc1cc(Br)ccc1OCC(=O)NCC1CCCO1 (stereo not given) | -1.27
40 | O=C(c1ccc(S(=O)(=O)N2CCCC2)cc1)N1CCCCC1 | 0.247
